Literature values, collected in patent US20190054093A1, “TREATMENT OF SARCOPENIA WITH ECDYSTEROIDS” (priority 2014, published 2019).
Some of these results come from one statement about several compounds together.

Test system: protein synthesis in mouse liver
Details: mice; single intragastric dose, turkesterone 0.5 mg/100 g, Nerobol 1.0 mg/100 g; cited from earlier work

C[C@]12C=CC(=O)C=C1CC[C@@H]1[C@@H]2CC[C@@]2(C)[C@H]1CC[C@]2(C)O [Nerobol]
increase of radioactivity of liver proteins: 1.9-2 times

CC(C)(O)CC[C@@H](O)[C@](C)(O)[C@H]1CC[C@@]2(O)C3=CC(=O)[C@@H]4C[C@@H](O)[C@@H](O)C[C@]4(C)[C@H]3[C@H](O)C[C@]12C [turkesterone]
increase of radioactivity of liver proteins: 1.9-2 times
